No constants are given. Whether binding was seen depends on the method and setting. For some of these results: In cells and extracts the contact can be indirect. Some entries that bind do so weakly or less than the wild type. For some of these results: Sequences can lack the tags named with a protein. Blank lines part the entries; values can stand above or below the binder they belong to.
Experiments:
[1] = target: T1, Arabidopsis G-protein β subunit AGB1, two-hybrid bait (pGBKT7-AGB1) (Arabidopsis thaliana) (UniProt P49177); assay: two-hybrid; Matchmaker library screen by yeast mating; full-length AGB1 in pGBKT7 as bait, Arabidopsis mature leaf cDNA library as prey; high-stringency selection media (SD/QDO)
T1 sequence: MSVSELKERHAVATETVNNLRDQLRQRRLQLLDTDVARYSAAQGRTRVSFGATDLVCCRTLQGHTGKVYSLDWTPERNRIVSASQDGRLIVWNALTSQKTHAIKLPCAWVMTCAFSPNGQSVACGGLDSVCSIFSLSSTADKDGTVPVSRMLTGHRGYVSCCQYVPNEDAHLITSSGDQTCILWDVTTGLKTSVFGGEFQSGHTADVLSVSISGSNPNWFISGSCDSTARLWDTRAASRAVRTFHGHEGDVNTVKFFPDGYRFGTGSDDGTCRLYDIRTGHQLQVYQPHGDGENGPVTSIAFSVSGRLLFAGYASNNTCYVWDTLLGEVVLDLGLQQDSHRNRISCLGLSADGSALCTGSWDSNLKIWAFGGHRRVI

[2] = target: T1, Arabidopsis G-protein β subunit AGB1, two-hybrid bait (pGBKT7-AGB1) (Arabidopsis thaliana); assay: two-hybrid; pGBK-AGB1 (bait) and pGADT7-Rec constructs (prey) co-introduced into S. cerevisiae AH109; HIS3 reporter on TDO (SD/-Trp/-Leu/-His + 10 mM 3-AT)
[3] = target: T2, AGB1 fused to the N-terminal fragment of mVenus for BiFC (pBS-35S:AGB1-VN159) (Arabidopsis thaliana) (UniProt P49177); assay: split reporter; BiFC with mVenus fragments; AGB1 with VN, PUB20 or AGG1 with VC80; transient expression from the 35S promoter
T2 sequence: T1 sequence

binding [1]: binds | binding [2]: binds
B1: Plant U-box 20 (PUB20), full-length ORF, two-hybrid prey (pGADT7-Rec-PUB20) (protein, UniProt Q9C8D1 1-431)
chain: MGLSLRVRRRGGSVSKKEIIPVTSCSEEVEITIPSQFQCPISYELMKDPVIIASGITYDRENIEKWFESGYQTCPVTNTVLTSLEQIPNHTIRRMIQGWCGSSLGGGIERIPTPRVPVTSHQVSEICERLSAATRRGDYAACMEMVTKMTRLGKESERNRKCVKENGAGLVLCVCFDAFSENANASLLLEETVSVLTWMLPIGLEGQSKLTTTSSFNRLVELLRNGDQNAAFLIKELLELNVTHVHALTKINGVQEAFMKSINRDSTCVNSLISIHHMILTNQETVSRFLELDLVNITVEMLVDSENSVCEKALTVLNVICETKEGREKVRRNKLVIPILVKKILKISEKKDLVSVMWKVCKSGDGSEVEEALRLGAFKKLVVMLQVGCGEGTKEKVTELLKMMNKVMKMNGFVDRSYSSSIEFKHVKKPF

binding [3]: binds
B2: PUB20 fused to the C-terminal fragment of mVenus for BiFC (pBS-35S:PUB20-VC80) (protein, UniProt Q9C8D1 1-431)
chain: B1 chain

binding [3]: binds
B3: AGG1 fused to the C-terminal fragment of mVenus for BiFC (pBS-35S:AGG1-VC80) (protein, UniProt Q9FDX9 1-98)
chain: MREETVVYEQEESVSHGGGKHRILAELARVEQEVAFLEKELKEVENTDIVSTVCEELLSVIEKGPDPLLPLTNGPLNLGWDRWFEGPNGGEGCRCLIL

From publication PMC3499536
